Data as given in PubChem BioAssay AID1259308 (NCATS, 2017).
Assay: 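Knock-downs that increase output of a recombinant reporter protein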 (primary screen). Cells: human HEK293 embryonic kidney cells stably expressing firefly luciferase (HEK-CMV-Luc2-Hygro). Knock-down reagent: single siRNA against human genes, 0.8 pmol siRNA per well. Timing: 72 h. Detection: 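Luciferase light (ONE-Glo) measured on one replicate plate set and viability (CellTiter-Glo) on the other, scaled to a negative control siRNA, with robust z-scores and luciferase per cell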. Reading the numbers: total luciferase, z-score and total luciferase, % of control: higher = more reporter protein produced. Hit rule: 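Active when the median/MAD z-score for overall luciferase is greater than 3; a gene was taken forward for validation with new siRNAs if at least two of its three siRNAs passed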. Calls: active = raised luciferase; inactive = no rise.
In all, the deposit lists about 59,000 reagents; shown is a part drawn at random. About 1,510 of all reagents (2.6%) count as active. 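Calls use total luciferase alone and ignore viability, so some active siRNAs may act by altering cell number.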 Reagents against one gene are numbered here. Further read-outs or replicates are left out here.

MAZ #1
- total luciferase, z-score: 0.259
- total luciferase, % of control: 87
- activity call: inactive

MAZ #2
- total luciferase, z-score: -0.835
- total luciferase, % of control: 65.3
- activity call: inactive

MAZ #3
- total luciferase, z-score: -0.373
- total luciferase, % of control: 74.5
- activity call: inactive

SLC13A5 #1
- total luciferase, z-score: 0.00689
- total luciferase, % of control: 82
- activity call: inactive

SLC13A5 #2
- total luciferase, z-score: -0.281
- total luciferase, % of control: 76.3
- activity call: inactive

SLC13A5 #3
- total luciferase, z-score: -0.933
- total luciferase, % of control: 63.3
- activity call: inactive

PLRG1 #1
- total luciferase, z-score: 1.92
- total luciferase, % of control: 120
- activity call: inactive

PLRG1 #2
- total luciferase, z-score: 1.58
- total luciferase, % of control: 113
- activity call: inactive

PLRG1 #3
- total luciferase, z-score: 3.45
- total luciferase, % of control: 151
- activity call: active

TMEM245 #1
- total luciferase, z-score: 0.909
- total luciferase, % of control: 100
- activity call: inactive

TMEM245 #2
- total luciferase, z-score: -0.77
- total luciferase, % of control: 66.6
- activity call: inactive

TMEM245 #3
- total luciferase, z-score: 0.675
- total luciferase, % of control: 95.3
- activity call: inactive

ZNF510 #1
- total luciferase, z-score: 0.0132
- total luciferase, % of control: 82.1
- activity call: inactive

ZNF510 #2
- total luciferase, z-score: 0.0634
- total luciferase, % of control: 83.1
- activity call: inactive

ZNF510 #3
- total luciferase, z-score: 0.0761
- total luciferase, % of control: 83.4
- activity call: inactive

XPO6 #1
- total luciferase, z-score: 0.204
- total luciferase, % of control: 86
- activity call: inactive

XPO6 #2
- total luciferase, z-score: -0.351
- total luciferase, % of control: 74.9
- activity call: inactive

XPO6 #3
- total luciferase, z-score: -1.32
- total luciferase, % of control: 55.7
- activity call: inactive

SAMD4A #1
- total luciferase, z-score: 0.405
- total luciferase, % of control: 90
- activity call: inactive

SAMD4A #2
- total luciferase, z-score: 0.249
- total luciferase, % of control: 86.8
- activity call: inactive

SAMD4A #3
- total luciferase, z-score: -1.22
- total luciferase, % of control: 57.7
- activity call: inactive

PTPN23 #1
- total luciferase, z-score: 0.76
- total luciferase, % of control: 97
- activity call: inactive

PTPN23 #2
- total luciferase, z-score: 1.54
- total luciferase, % of control: 112
- activity call: inactive

PTPN23 #3
- total luciferase, z-score: 3.6
- total luciferase, % of control: 154
- activity call: active

FKBP8 #1
- total luciferase, z-score: -0.331
- total luciferase, % of control: 75.3
- activity call: inactive

FKBP8 #2
- total luciferase, z-score: 0.289
- total luciferase, % of control: 87.6
- activity call: inactive

FKBP8 #3
- total luciferase, z-score: -0.8
- total luciferase, % of control: 66
- activity call: inactive

FAM66C #1
- total luciferase, z-score: -0.984
- total luciferase, % of control: 62.3
- activity call: inactive

FAM66C #2
- total luciferase, z-score: 0.84
- total luciferase, % of control: 98.6
- activity call: inactive

FAM66C #3
- total luciferase, z-score: 1
- total luciferase, % of control: 102
- activity call: inactive

NXPH3 #1
- total luciferase, z-score: -1.36
- total luciferase, % of control: 54.8
- activity call: inactive

NXPH3 #2
- total luciferase, z-score: 0.353
- total luciferase, % of control: 88.9
- activity call: inactive

NXPH3 #3
- total luciferase, z-score: 1.25
- total luciferase, % of control: 107
- activity call: inactive

Only “total luciferase, z-score” (3 entries from above):
FKBP8 #2: 0.289
FKBP8 #3: -0.8
FAM66C #1: -0.984
